# Values quoted from earlier work as cited in patent US5376658A, “5,10-methylene-tetrahydrofolate as a modulator of a chemotherapeutic agent” (priority 1993, dated 1994).
# At least one structure is not confirmed: it was looked up by name or label, or the drawing left a doubt.
# Test system: gastrointestinal cancers
# Conditions: colon cancer; cited from earlier work
smiles,measurement,value
"Nc1nc2c(c(=O)[nH]1)N(C=O)[C@H](CNc1ccc(C(=O)N[C@@H](CCC(=O)O)C(=O)O)cc1)CN2 [LV, (6R,S)-5-formyl-tetrahydrofolate]","tumor response rate and patient survival, low-dose (20 mg per square meter) versus high-dose LV (200 mg per square meter)",more effective
